Measurements reported in PubChem BioAssay AID686943 (Drosophila RNAi Screening Center, 2013)
The screen tested about 23,000 reagents; shown is a random part of those with a known target gene and a result. 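Extra replicates exist only for a retested subset of genes; insulin dose and duration not given; both raised and lowered dpERK matter.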 A plus sign joins genes that one reagent is predicted to hit. Not given: the amount of reagent, the time to read-out.

Assay: 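Fly genes whose loss alters ERK activation after insulin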 (primary screen)
System: Drosophila S2R+ haemocyte-like cells expressing YFP-tagged ERK (Rolled)
Reagents: long dsRNA against Drosophila genes
Treatment: insulin stimulation versus unstimulated cells; dose and duration not given
Detection: 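Antibody staining for doubly phosphorylated ERK divided by ERK-YFP signal, as plate z-scores, in insulin-treated and untreated cells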
Direction: replicate 1, z-score of dpERK with insulin and replicate 2, z-score of dpERK with insulin: higher = more active ERK per ERK-YFP after insulin; replicate 1, z-score of dpERK under basal conditions: higher = more basal active ERK per ERK-YFP; replicate 1, z-score of ERK-YFP with insulin: higher = more YFP-tagged ERK signal

replicate 1, z-score of dpERK with insulin | replicate 2, z-score of dpERK with insulin | replicate 1, z-score of dpERK under basal conditions | replicate 1, z-score of ERK-YFP with insulin | target | dsRNA
-0.53 | 0.3 | 1.23 | 0.15 | wgn (wengen) | DRSC19998
-0.32 | -0.63 | -0.01 | -0.16 | Gas41 | DRSC03156
-1.9 | -2.03 | -1.25 | 0.77 | Sps1 (Selenophosphate synthetase 1) | DRSC07549
-0.08 | 0.44 | 2.19 | -0.51 | CG31788 | DRSC01630
-0.05 | -0.71 | -0.45 | -0.06 | l(1)G0004 (lethal (1) G0004) | DRSC20486
0.06 | 0.15 | 1.1 | 0.79 | CG43123 | DRSC05049
0.37 | 0.33 | 0.62 | 0.11 | emei | DRSC10897
0.73 | 0.78 | 3.22 | 0.35 | emei | DRSC22684
0.31 | -0.72 | -0.29 | -0.76 | CG6231 | DRSC15997
-1.17 | 0.13 | -0.84 | 0.9 | Sec20 (Secretory 20) | DRSC12295
-0.73 | -0.46 | -0.73 | -0.54 | REG (Proteasome regulator gamma) | DRSC20273
0.14 | 0.39 | 0.08 | 0.32 | Acp63F (Accessory gland protein 63F) | DRSC08137
-0.16 | 0.06 | 0.6 | -0.33 | Wdfy2 (WD repeat and FYVE domain containing 2) | DRSC02822
0.29 | 1.02 | -0.07 | 0.87 | CG30471 | DRSC07096
0.67 | 0.28 | 0.23 | 1.14 | Ntmt (N-terminal methyltransferase) | DRSC06624
-0.22 | -0.06 | 0.33 | 0.07 | Fbxo42 (F-box protein 42) | DRSC04529
-0.31 | 0.28 | -0.32 | 0.3 | P5cr-2 (Pyrroline-5-carboxylate reductase-like 2) | DRSC15889
-0.69 | -0.08 | -1.21 | 0.08 | Or22a (Odorant receptor 22a) | DRSC00764
-0.44 | -0.21 | 0.65 | 0.44 | Atg2 (Autophagy-related 2) | DRSC08273
0.15 | -0.85 | -0.24 | 0.23 | mud (mushroom body defect) | DRSC19019
0.73 | -0.74 | -0.34 | 0.08 | Den1 (Deneddylase 1) | DRSC07195
-0.39 | 0.03 | -0.73 | 0.05 | Flo1 (Flotillin 1) | DRSC07427
0.14 | 1.28 | -0.15 | 0.25 | alpha-Est5 (alpha-Esterase-5) | DRSC12617
-0.27 | 0.66 | 0.16 | 1.55 | CG32591 | DRSC19063
-0.32 | 0.5 | -0.29 | 0.05 | Mob3 (MOB kinase activator 3) | DRSC02791

A stretch taken from the entries so far, for reference:
replicate 1, z-score of dpERK with insulin | replicate 2, z-score of dpERK with insulin | replicate 1, z-score of dpERK under basal conditions | replicate 1, z-score of ERK-YFP with insulin | target | dsRNA
0.67 | 0.28 | 0.23 | 1.14 | Ntmt (N-terminal methyltransferase) | DRSC06624
-0.22 | -0.06 | 0.33 | 0.07 | Fbxo42 (F-box protein 42) | DRSC04529

Further entries:
replicate 1, z-score of dpERK with insulin | replicate 2, z-score of dpERK with insulin | replicate 1, z-score of dpERK under basal conditions | replicate 1, z-score of ERK-YFP with insulin | target | dsRNA
0.95 | 0.08 | 0.17 | -0.08 | CalpA (Calpain-A) | DRSC07352
-0.65 | 0 | 0.28 | 0.29 | otk2 (off-track2) | DRSC07303
0.57 | -0.58 | -0.16 | -0.22 | CG32801 | DRSC17964
0.62 | -0.2 | 0.15 | 0.29 | CG42812 | DRSC15368
-0.64 | -0.54 | 0.49 | 0.45 | Gem4b + Gem4c | DRSC17294
0.3 | 1.23 | -2.84 | 2.14 | Taf4 (TBP-associated factor 4) | DRSC11297
-0.62 | -0.18 | 0.81 | 0.74 | Mul1 (Mitochondrial E3 ubiquitin protein ligase 1) | DRSC08174
1.08 | 0.58 | -1.01 | 0.1 | CG7213 | DRSC10787
-0.54 | -0.65 | -0.32 | 1.97 | CG5386 | DRSC15788
0.61 | 0.15 | 0 | 0.02 | CG7335 | DRSC10816
1.61 | -0.24 | -0.09 | -0.45 | CG3598 | DRSC18471
0.46 | 0 | 0.75 | 0.41 | CG13639 | DRSC14638
0.13 | -0.18 | -0.94 | 0.03 | CG2145 | DRSC19835
0.04 | -0.05 | 0.59 | -0.09 | HP4 (Heterochromatin protein 4) | DRSC10958
